Laboratory results as given in PubChem BioAssay AID330 (DTP/NCI, 2004).
The list does not hold the whole screen: it is rich in T/C values a quarter to a half above the control, in often repeated tests (any T/C) and in doses without a T/C. Further doses and runs are listed elsewhere. T/C gives the treated animals as a percentage of the vehicle group. Some entries give survivors of the animals treated and no T/C: the source files T/C as zero there, which appears to mark a toxic dose or a test without result, not a measured value. Some survivor counts are full or nearly so, which does not show that the dose was tolerated: survival well below the control is almost never listed, so the zero probably covers shortened survival too. Counts of survivors are from the toxicity check (mostly the fifth day) where no day follows; animals may have died later. Schedules are NCI's codes, read here as Q, the interval in days (D) or hours (H), X, the number of doses. Some doses were run more than once; their values stand side by side, smallest first. Brackets with × count equal records among those shown. For survival time, this PubChem deposit counts one and a half times the control or more as active, and values a quarter to a half above the control carry no call in these data; other NCI protocols may use other cut-offs. Some T/C values are followed by the survivors on the day toxicity was checked, most often the fifth; without a count, all were alive then.

Test system: P388 leukemia ip, CD2F1 mice, survival T/C
Assay: NCI In Vivo Anticancer Drug Screen. Data for tumor model P388 Leukemia (intraperitoneal) in CD2F1 (CDF1) mice
Details: T/C endpoint: median survival time, higher T/C = longer survival
[1] = dose: 12.5 mg/kg/injection, schedule: Q01DX009 (ip), vehicle: Klucel (hydroxypropylcellulose) (HPC)
[2] = dose: 50.0 mg/kg/injection, schedule: Q01DX009 (ip), vehicle: Klucel (hydroxypropylcellulose) (HPC)
[3] = dose: 100.0 mg/kg/injection, schedule: Q01DX009 (ip), vehicle: Klucel (hydroxypropylcellulose) (HPC)
[4] = dose: 200.0 mg/kg/injection, schedule: Q01DX009 (ip), vehicle: saline with Tween-80
[5] = dose: 25.0 mg/kg/injection, schedule: Q01DX005 (ip), vehicle: saline with Tween-80
[6] = dose: 50.0 mg/kg/injection, schedule: Q01DX005 (ip), vehicle: saline with Tween-80
[7] = dose: 100.0 mg/kg/injection, schedule: Q01DX005 (ip), vehicle: saline with Tween-80
[8] = dose: 200.0 mg/kg/injection, schedule: Q01DX005 (ip), vehicle: saline with Tween-80
[9] = dose: 60.0 mg/kg/injection, schedule: Q01DX005 (ip), vehicle: saline with Tween-80
[10] = dose: 120.0 mg/kg/injection, schedule: Q01DX005 (ip), vehicle: saline with Tween-80
[11] = dose: 240.0 mg/kg/injection, schedule: Q01DX005 (ip), vehicle: saline with Tween-80

Structure (SMILES): CC1(C)CC2(OC2c2ccc([N+](=O)[O-])cc2)C(=O)c2ccccc21 (configuration not stated)
- survivor count (dose: 6.25 mg/kg/injection, schedule: Q01DX009 (ip), vehicle: Klucel (hydroxypropylcellulose) (HPC)): 6 of 6
- survivor count [1]: 5 of 6 and 6 of 6
- survivor count (dose: 25.0 mg/kg/injection, schedule: Q01DX009 (ip), vehicle: Klucel (hydroxypropylcellulose) (HPC)): 6 of 6
- survivor count [2]: 5 of 6 and 6 of 6
- survivor count [3]: 6 of 6
- survivor count (dose: 200.0 mg/kg/injection, schedule: Q01DX009 (ip), vehicle: Klucel (hydroxypropylcellulose) (HPC)): 5 of 6 and 6 of 6

Structure (SMILES): Cc1cccnc1NC1OC(=O)c2ccccc21 (configuration not stated)
- survivor count [4]: 3 of 6

Structure (SMILES): CS/C(=C/c1ccc2ccccc2[n+]1C)N1CCSCC1
- survivor count (dose: 6.25 mg/kg/injection, schedule: Q01DX005 (ip), vehicle: saline with Tween-80): 2 of 5
- survivor count (dose: 12.5 mg/kg/injection, schedule: Q01DX005 (ip), vehicle: saline with Tween-80): 0 of 6
- survivor count [5]: 0 of 6
- survivor count [6]: 0 of 6
- survivor count [7]: 0 of 6
- survivor count [8]: 0 of 6

Structure (SMILES): CCOC(=O)c1c[nH]c2oc(/C=N/N3CC(CN4CCOCC4)OC3=O)cc2c1=O (configuration not stated)
- T/C (dose: 200.0 mg/kg/injection, schedule: Q01DX005 (ip), vehicle: acid diluted with saline): 143 % of control
- T/C (dose: 200.0 mg/kg/injection, schedule: Q04DX002 (ip), vehicle: saline): 131 % of control
- survivor count (dose: 400.0 mg/kg/injection, schedule: Q01DX005 (ip), vehicle: acid diluted with saline): 6 of 6
- T/C (dose: 400.0 mg/kg/injection, schedule: Q04DX002 (ip), vehicle: saline): 140 % of control
- survivor count (dose: 800.0 mg/kg/injection, schedule: Q01DX005 (ip), vehicle: acid diluted with saline): 0 of 6

Structure (SMILES): COc1ccc(CCN2CCC(Nc3nc4ccccc4n3Cc3ccc(F)cc3)CC2)cc1
- survivor count [8]: 0 of 6

Structure (SMILES): c1ccc(-c2ccc[n+](CCCC[n+]3cccc(-c4ccccn4)c3)c2)nc1
- survivor count (dose: 30.0 mg/kg/injection, schedule: Q01DX005 (ip), vehicle: saline): 1 of 6
- survivor count (dose: 60.0 mg/kg/injection, schedule: Q01DX005 (ip), vehicle: saline): 0 of 6
- survivor count (dose: 120.0 mg/kg/injection, schedule: Q01DX005 (ip), vehicle: saline): 0 of 6
- survivor count (dose: 240.0 mg/kg/injection, schedule: Q01DX005 (ip), vehicle: saline): 0 of 6

Structure (SMILES): COc1cc2c(c3c1C(=O)c1c(cc4c(c1O)C(OC)CC(C)(O)C4)C3=O)OC1OC2(C)C(O)C(N(C)C)C1O (configuration not stated)
- T/C (dose: 2.5 mg/kg/injection, schedule: Q01DX009 (ip), vehicle: other): 133 % of control
- T/C (dose: 5.0 mg/kg/injection, schedule: Q01DX009 (ip), vehicle: other): 142 % of control

Structure (SMILES): CCCCCCCCCCNC1CC(OC2CC(O)(C(C)=O)Cc3c(O)c4c(c(O)c32)C(=O)c2c(OC)cccc2C4=O)OC(C)C1O (configuration not stated)
- survivor count (dose: 75.0 mg/kg/injection, schedule: Q04DX003 (ip), vehicle: water): 1 of 3
- survivor count (dose: 150.0 mg/kg/injection, schedule: Q04DX003 (ip), vehicle: water): 0 of 3

Structure (SMILES): O=C(O)C[N-]CC(=O)O.OO.[O]=[V]
- survivor count [9]: 0 of 6
- survivor count [10]: 0 of 6
- survivor count [11]: 0 of 6

Structure (SMILES): NC(CCS)C(=O)O (configuration not stated)
- survivor count [8]: 6 of 6

Structure (SMILES): O=C(/C=C/C1N=C1c1ccccc1)c1ccccc1 (configuration not stated)
- survivor count (dose: 200.0 mg/kg/injection, schedule: Q01DX001 (ip), vehicle: Klucel (hydroxypropylcellulose) (HPC)): 3 of 6
- survivor count (dose: 400.0 mg/kg/injection, schedule: Q01DX001 (ip), vehicle: Klucel (hydroxypropylcellulose) (HPC)): 0 of 6

Structure (SMILES): COC(=O)C(N)CSCSCc1ccccc1 (configuration not stated)
- survivor count (dose: 200.0 mg/kg/injection, schedule: Q01DX009 (ip), vehicle: saline): 2 of 6

Structure (SMILES): C=[CH][Sn]([Cl])([Cl])[CH]=C.COc1ccc(P(=O)(c2ccc(OC)cc2)c2ccc(OC)cc2)cc1
- T/C (dose: 200.0 mg/kg/injection, schedule: Q04DX003 (ip), vehicle: saline): 125 % of control

Structure (SMILES): NC(N)=N/N=C/c1ccc(-c2ccccc2)cc1
- survivor count (dose: 25.0 mg/kg/injection, schedule: Q01DX009 (ip), vehicle: saline with Tween-80): 3 of 6

Structure (SMILES): c1ccc([Se][Se]c2ccccn2)nc1
- survivor count (dose: 50.0 mg/kg/injection, schedule: Q01DX005 (ip), vehicle: Klucel (hydroxypropylcellulose) (HPC)): 3 of 6
- survivor count (dose: 100.0 mg/kg/injection, schedule: Q01DX005 (ip), vehicle: Klucel (hydroxypropylcellulose) (HPC)): 0 of 6
- survivor count (dose: 200.0 mg/kg/injection, schedule: Q01DX005 (ip), vehicle: Klucel (hydroxypropylcellulose) (HPC)): 0 of 6

Structure (SMILES): CCCCCOCC(=O)O
- survivor count [4]: 3 of 6

Structure (SMILES): CC(=O)OCC1OC(S[As](C)C)C(OC(C)=O)C(OC(C)=O)C1OC(C)=O (configuration not stated)
- T/C (dose: 50.0 mg/kg/injection, schedule: Q01DX009 (ip), vehicle: saline with Tween-80): 125 % of control [5 of 6 alive]
- T/C (dose: 100.0 mg/kg/injection, schedule: Q01DX009 (ip), vehicle: saline with Tween-80): 129 % of control
- T/C [4]: 125 % of control

Structure (SMILES): CCOC(=O)C(Cc1ccc(N(CCCl)CCCl)cc1)NC(=O)C(NC(C)=O)C(C)C (configuration not stated)
- T/C (dose: 10.0 mg/kg/injection, schedule: Q04DX003 (ip), vehicle: water): 126 % of control

Structure (SMILES): OCC1OC(n2ccc3c(NO)ncnc32)C(O)C1O (configuration not stated)
- T/C (dose: 0.46 mg/kg/injection, schedule: Q01DX005 (ip), vehicle: Klucel (hydroxypropylcellulose) (HPC)): 127 % of control
- T/C (dose: 0.93 mg/kg/injection, schedule: Q01DX005 (ip), vehicle: Klucel (hydroxypropylcellulose) (HPC)): 126 and 134 % of control
- T/C (dose: 1.87 mg/kg/injection, schedule: Q01DX005 (ip), vehicle: Klucel (hydroxypropylcellulose) (HPC)): 126 and 137 % of control
- survivor count (dose: 3.75 mg/kg/injection, schedule: Q01DX005 (ip), vehicle: Klucel (hydroxypropylcellulose) (HPC)): 5 of 6 and 6 of 6 (2×)
- survivor count (dose: 7.5 mg/kg/injection, schedule: Q01DX005 (ip), vehicle: Klucel (hydroxypropylcellulose) (HPC)): 3 of 6
- survivor count (dose: 15.0 mg/kg/injection, schedule: Q01DX005 (ip), vehicle: Klucel (hydroxypropylcellulose) (HPC)): 0 of 6
- survivor count (dose: 30.0 mg/kg/injection, schedule: Q01DX005 (ip), vehicle: Klucel (hydroxypropylcellulose) (HPC)): 0 of 6

Structure (SMILES): CCCCCCN=C(N)N/N=C(\C)c1ccc2c(c1)Cc1ccccc1-2
- survivor count (dose: 200.0 mg/kg/injection, schedule: Q04DX002 (ip), vehicle: saline with Tween-80): 4 of 6

Structure (SMILES): Cc1cc(C)nc(NS(=O)(=O)c2ccc(Nc3c4ccccc4nc4c([N+](=O)[O-])cccc34)cc2)n1
- survivor count [9]: 6 of 6
- survivor count [10]: 6 of 6
- survivor count [11]: 6 of 6

Structure (SMILES): Cc1cc(=O)n2[nH]cnc2n1
- survivor count [1]: 6 of 6
- T/C [2]: 86 [5 of 6 alive], 96, 98, 100, 116 % of control
- T/C [3]: 94, 99, 100, 111, 124 % of control

Structure (SMILES): Cc1ccc(C)n1-n1nnnc1N
- survivor count [8]: 3 of 5

Structure (SMILES): Nc1[nH]c(=S)[nH]c(=O)c1NS(=O)(=O)c1ccccc1[N+](=O)[O-]
- T/C (dose: 60.0 mg/kg/injection, schedule: Q01DX005 (ip), vehicle: Klucel (hydroxypropylcellulose) (HPC)): 142 % of control
- T/C (dose: 120.0 mg/kg/injection, schedule: Q01DX005 (ip), vehicle: Klucel (hydroxypropylcellulose) (HPC)): 142 % of control
- T/C (dose: 240.0 mg/kg/injection, schedule: Q01DX005 (ip), vehicle: Klucel (hydroxypropylcellulose) (HPC)): 141 % of control [4 of 6 alive]

Structure (SMILES): COC1=CC(=O)c2nc(Cl)ccc2C1=O
- survivor count [5]: 6 of 6
- survivor count [6]: 0 of 6
- survivor count [7]: 0 of 6
- survivor count [8]: 0 of 6

Structure (SMILES): Cc1ccc2c(c1)C=CC(C#N)N2C(=O)OCc1ccccc1 (configuration not stated)
- survivor count (dose: 400.0 mg/kg/injection, schedule: Q04DX003 (ip), vehicle: saline with Tween-80): 6 of 6
